Assay results taken from PMC10163288.
Some of the results follow.

B1: il10ra_site1_normal_mot_b26a303360aa2756ef5b79665ce52f45_0001_000000179_0001_1_11_H_._HHH_b1_03806_0001_0000500036_0000001_0 (protein)
chain: SSSSDLSQELHKLSREAARLLTEGNPEEAEEVLEEAEKIAKELGNEVILFSLEHLLRDIRSSSSS
B2: il10ra_site1_normal_mot_HHH_b2_02736_000000092_0001_22_38_H_._HHH_b1_07991_0001_0000100004_0000001_0 (protein)
chain: SSSSSSEEYEERVEELLERLEEVSPQEAYELLREAIELAAEANDKELFELIMEALERWLRSSSSS
B3: il10ra_site1_sap_14_mot_HHH_b1_06348_000000162_0001_1_15_H_._HHH_b1_02721_0001_0000200021_0000002_0_0001 (protein)
chain: SSSSSKEEEQLRLSLEFAEWLLREGDPEAARRIAEAALDIARRLGDEELEREIEELLREIGSSSS
B4: il10ra_site1_normal_mot_8756ee2cf497b5429c717dfc0c0bcfd6_0001_000000186_0001_1_13_H_._HHH_b1_07252_0001_0000200010_0000002_0_af2pred_0001 (protein)
chain: SSSSSEEIKEIQELSREAAELIRKGDPEEAEKLLERAFELAEELNSLNLLAVVEFLLEHVSSSSS
B5: il10ra_site1_sap_13_mot_HHH_b1_05357_000000034_0001_23_39_H_._HHH_b2_06821_0001_0000300029_0000001_0_0001_af2pred_0001 (protein)
chain: SSSSDDHERVLRLLREAIKALFEGDPEEAHELAEEALKLAEERNDPRLEEAARQVLRAIEGSSSS
B6: il10ra_site1_sap_21_mot_HHH_b1_05815_000000111_0001_1_19_H_._HHH_b2_06309_0001_0000400029_0000002_0_0001 (protein)
chain: SSSSEEEELHRLIERILHLLKEGNLEEAEELLERVRELAERLNNRAARAIVRSLEMVLEQLQSSS
B7: il10ra_site1_normal_mot_HHH_b1_01821_000000158_0001_23_39_H_._HHH_b1_05213_af2_0001_0000700023_0000001_0 (protein)
chain: SSSSSELEERVEELLEKAEELAERGDRRWLELLAEALRLVFEHGNQELLQRIWEVFKKLASSSSS
B8: il10ra_site1_normal_mot_HHH_b2_00277_af2_000000172_0001_1_17_H_._HHH_b2_04887_0001_0000100003_0000001_0_af2pred_0001 (protein)
chain: SSSSSDEEEEEVEELLEEAKHIEDPDERTYVLIRAFAVANRGNNPELKELVRRVALELSESSSSS
B9: il10ra_site1_normal_mot_HHH_b1_08477_000000091_0001_40_57_H_._HHH_eva_0771_0001_0000400014_0000001_0_af2pred_0001 (protein)
chain: SSSSSRVEAAIRDVKAAAEHLGDEEVLELVERIREEYEEGKLDPEEALKLLAKLSRRLARSSSSS
B10: il10ra_site1_sap_14_mot_HHH_b2_03438_af2_000000049_0001_18_34_H_._HHH_b1_04762_0001_0000200008_0000001_0_0001 (protein)
chain: SSSSSNEEAVEMALLAAELAKEAGDPEMAKIAVRFAEHLAEWLGDEELEELVEEVKERLSSSSSS
B11: il10ra_site1_sap_17_mot_HHH_b1_05357_000000034_0001_23_39_H_._HHH_b2_02261_0001_0000400025_0000001_0_0001 (protein)
chain: SSSSSRRAARFHLDMARQAFELNNKEDLRSLLYALEALLEITGDPELERYVEEVQELLEELSSSS
B12: il10ra_site1_normal_mot_HHH_b2_06054_000000214_0001_39_53_H_._HHH_b1_07805_0001_0000200011_0000001_0_af2pred_0001 (protein)
chain: SSSSSEFEREARELFEEAKELLEEGDPKEVVKIIRRLAELARRFDNPKAVELALRLARELFSSSS
B13: il10ra_site1_sap_22_mot_HHH_b2_00479_000000091_0001_1_12_H_._HHH_b1_07261_af2_0001_0000700024_0000001_1_0001 (protein)
chain: SSSSSDERERLLELLRQAFRLALRGDPEEAREVLEEALELAEELGDERAVKQIRDMLKALSSSSS
B14: il10ra_site1_sap_23_mot_HHH_b2_02053_af2_000000006_0001_3_19_H_._HHH_b1_01074_0001_0000700032_0000001_0_0001 (protein)
chain: SSSSDKEELSEEVLEELERLAEEGDRERFSRLAQEALRLAYELRDPELLRALWELVRRFASSSSS
B15: il10ra_site1_normal_mot_HHH_b2_07006_000000108_0001_1_19_H_._HHH_b1_03230_0001_0000500068_0000001_0 (protein)
chain: SSSSDEEYELLRRAIEELLELLREGNPEEAERLFREVERELEEAGNFVAVFSLRHAFRRTSSSSS
B16: il10ra_site1_normal_mot_493e05f641973f3adf044177f88ae147_0001_af2_000000048_0001_1_12_H_._HHH_b1_05964_af2_0001_0000500020_0000001_0_af2pred_0001 (protein)
chain: SSSSSSQEEALEHAVEVLVRAFKLSEEQKEELEELARELLERGYDPEEVLKILVERAKKLSSSSS
B17: il10ra_site1_normal_mot_HHH_b1_02062_000000185_0001_1_20_H_._HHH_b1_06352_0001_0000500034_0000002_0 (protein)
chain: SSSSDLRREAYELSRKIAELLSEGNPEEAQELLEELRKIIEELGNELLEFILRHLEQDLNSSSSS
B18: il10ra_site1_normal_mot_HHH_b2_00475_000000107_0001_44_57_H_._HHH_b2_06725_0001_0000100004_0000002_0 (protein)
chain: SSSSDEEEERYLEIAKHFIEAASKKNPELARIIARVLLKWLEERGDEELAEELRELLEELSSSSS
B19: il10ra_site1_normal_mot_HHH_b1_01874_000000035_0001_1_20_H_._HHH_b2_01313_af2_0001_0000100002_0000001_0_af2pred_0001 (protein)
chain: SSSSDEEAFKLLRRALEARRRGNLEEAEELAEKAREIAEENNNEIFLFAIERLERDLRLLGSSSS

target: il10ra, Q13651; assay: yeast display titration

Binder	apparent Kd
B1	inactive: no binding seen
B2	inactive: no binding seen
B3	inactive: no binding seen
B4	inactive: no binding seen
B5	inactive: no binding seen
B6	inactive: > 851 nM
B7	inactive: no binding seen
B8	inactive: no binding seen
B9	inactive: no binding seen
B10	inactive: no binding seen
B11	inactive: > 1280 nM
B12	inactive: no binding seen
B13	inactive: no binding seen
B14	inactive: no binding seen
B15	inactive: no binding seen
B16	inactive: no binding seen
B17	inactive: no binding seen
B18	inactive: > 1290 nM
B19	inactive: no binding seen

A second format for some results above:
Binder,apparent Kd
B2,inactive: no binding seen
B3,inactive: no binding seen
